The text below walks through data of PubChem BioAssay AID901 (National Center for Advancing Translational Sciences (NCATS), 2007).

This is one part of the list. Shown are side measurements of this screen, not its main read-out; they come without a call. Most of these compounds were active or inconclusive in the main read-out, so they are no random draw. The note in brackets gives the kind of curve behind each potency; many fits are weak.

This assay can be described thus: qHTS Assay for Identifying the Cell-Membrane Permeable IMPase Inhibitors. The conditions noted are these: CHO-M1 cells, IP1 accumulation, HTRF TR-FRET ratio; measured here: donor channel 620 nm AC50. A general note: In qHTS, concentration-response curves come from the screen itself.
`O=C(COC(=O)c1ccc(S(=O)(=O)N2CCCC2)cc1)NCc1ccc(Cl)cc1`: the AC50 was 31.6 µM [rising, single point].

For `CC(C)CCn1c(SCCN2CCOCC2)nc2c1c(=O)[nH]c(=O)n2C`, the AC50 was 0.02 µM [rising, full curve, poor fit].

Consider `CCOC(=O)c1c(N)sc(C(=O)N(C)C)c1CN1CCOCC1`, for which the AC50 is 0.0158 µM [falling, full curve, poor fit].

On to `COc1ccc(Cn2c(N)c(S(=O)(=O)c3cccs3)c3nc4ccccc4nc32)cc1`, for which the AC50 is 31.6 µM [rising, single point].

With `CCN1CCN(CCCNC(=O)c2ccc3c(c2)NC(=O)c2ccccc2S3)CC1`, the AC50 is 1 µM [falling, full curve].

`COCCN(C(=O)CC(C)(C)C)c1nnc(-c2cccnc2)s1`: the AC50 was 15.8 µM [falling, single point].

As to `N#C/C(=C\c1ccc(Br)cc1)c1nc(-c2cc3cc(Br)ccc3oc2=O)cs1`, the AC50 is 3.98 µM [falling, single point].

As for `COC(=O)c1cc(OC)c(OC)cc1NC(=O)c1c(-c2ccccc2)noc1C`, the AC50 was 35.5 µM [falling, single point].

Regarding `CCc1ccccc1NC(=O)C1CC(c2ccc(F)cc2)=NO1` (configuration not stated), the half-maximal activity concentration (AC50) is 0.01 µM [rising, full curve, poor fit].

Take `CO/N=C/NC(=O)C1=NOC(CNc2ncc(C(F)(F)F)cc2Cl)C1` (configuration not stated): the AC50 is 0.0282 µM [falling, full curve, poor fit].

On to `CC1CN(Cc2cc(=O)[nH]c(C(C)C)n2)CC(C)O1` (configuration not stated), for which the AC50 is 1.26 µM [rising, full curve, poor fit].

With `Cc1cc2sc(C(=O)O)c(C)c2s1`, the AC50 is 31.6 µM [rising, single point].

With `CCOC(=O)c1ccc(N=c2sc(C(=O)OC)cc(=O)n2C2CC2)cc1`, the AC50 was 0.0501 µM [falling, full curve].

With `COc1cccc(C2CN(c3ccc(F)cc3F)N=C2c2cccs2)c1OC` (configuration not stated), the AC50 is 1.26 µM [falling, partial curve].

For the compound `N#Cc1c(SCC(=O)O)nc(-c2ccccc2)c2c1CCCC2`, the AC50 was 12.6 µM [rising, partial curve, poor fit].

Consider `COc1ccc(-c2nc(SCC(=O)NCC3CCCO3)c(-c3ccc(Cl)cc3)[nH]2)cc1` (configuration not stated), for which the AC50 is 0.794 µM [falling, full curve].

For the compound `CC(=O)N1CCN(C(=O)Cn2c(=O)oc3ccccc32)CC1`, the AC50 was 0.501 µM [rising, full curve, poor fit].

Take `CCOC(=O)c1ccc2ncc(C(=O)OCC)c(NCCc3ccc(OC)c(OC)c3)c2c1`: the concentration at half-maximal activity (AC50) was 35.5 µM [rising, single point].

Consider `Cc1cc(C(=O)OCC(=O)c2ccc(Br)s2)no1`, for which the concentration at half-maximal activity (AC50) was 12.6 µM [rising, partial curve].

With `CN(C)c1nc(-c2ccccc2)cc(C(F)(F)F)c1C#N`, the AC50 is 0.0316 µM [rising, full curve, poor fit].

On to `COc1ccc(NC(=O)c2ccco2)cc1NC(=O)c1cccs1`, for which the AC50 is 31.6 µM [rising, single point].

In the case of `COc1ccc(Cl)cc1NC(=O)CN(c1cccc(C)c1C)S(C)(=O)=O`, the AC50 was 35.5 µM [falling, single point].

Turning to `CC1(C)C(=O)NC2=C1C(=O)C(=O)c1ccccc12`, the AC50 is 15.8 µM [falling, partial curve].

As for `CCOC(=O)c1cc(NC(=O)c2ccc(C)cc2)c(=O)n2c1oc1ccccc12`, the AC50 was 0.141 µM [falling, single point].

Turning to `CN1CCN(c2cc(=O)n(Cc3ccc(F)cc3)c(=O)[nH]2)CC1`, the AC50 is 0.224 µM [falling, full curve].

Consider `CC(=O)C1=C(C)NC(SCC(=O)Nc2nc3ccccc3s2)=C(C#N)C1c1ccc(Cl)cc1` (configuration not stated), for which the AC50 was 4.47 µM [falling, single point].

On to `COc1ccc(CSc2nc(C)cc(=O)[nH]2)cc1`, for which the concentration at half-maximal activity (AC50) is 5.01 µM [falling, partial curve, poor fit].

For `Cc1ccccc1-n1nc(C(=O)O)c(C)c(C#N)c1=O`, the concentration at half-maximal activity (AC50) is 6.31 µM [falling, single point].

Consider `COc1cc(C(=O)NCCN2CCCC2)cc(OC)c1OC`, for which the AC50 is 31.6 µM [falling, single point].

As to `CC(C)(C)C(=O)NC(NC(=S)Nc1sc2c(c1C#N)CCCC2)C(Cl)(Cl)Cl` (configuration not stated), the concentration at half-maximal activity (AC50) is 10 µM [rising, partial curve].

For the compound `O=c1cc2c(nn1Cc1cccc(Cl)c1)-c1ccccc1CC2`, the AC50 was 25.1 µM [falling, single point].

`COc1ccc(CN2C(=O)[C@@H]3C(c4ccccc4Cl)=NO[C@@H]3C2=O)cc1`: the AC50 was 5.01 µM [rising, single point].

For `Cc1ccc(S(=O)(=O)N2CCN(C(=O)CN3CCOCC3)C2c2ccccc2)cc1` (configuration not stated), the half-maximal activity concentration (AC50) is 3.16 µM [rising, single point].

As to `N#C/C(=C\c1ccc(O)c(O)c1)C(=O)c1ccc(O)c(O)c1`, the AC50 is 31.6 µM [falling, partial curve, poor fit].

In the case of `O=c1cc(N2CCc3ccccc3C2)[nH]c(=O)n1Cc1ccc(F)cc1`, the AC50 is 0.316 µM [rising, partial curve].

With `c1coc(-c2nc3c4c5c(sc4ncn3n2)CCCC5)c1`, the AC50 was 5.01 µM [rising, single point].

`CCn1nnnc1SCC(=O)NCc1ccco1`: the AC50 is 0.398 µM [rising, full curve, poor fit].

Regarding `Cc1nnc(SC(C)C(=O)Nc2ccc(S(=O)(=O)NC3CCCCC3)cc2)s1` (configuration not stated), the AC50 was 31.6 µM [falling, single point].

For `Cc1cccc(C(=O)Nc2cc3c(cc2N2CCOCC2)n(C)c(=O)n3C)c1`, the AC50 is 0.282 µM [falling, partial curve, poor fit].

As for `Cc1ccc(OCCSc2ncnc3sc(C)c(C)c23)cc1C`, the AC50 was 5.01 µM [rising, partial curve].

For the compound `O=C(NCCc1ccccc1)c1c(O)c2cccc3c2n(c1=O)CC3`, the AC50 was 12.6 µM [rising, single point].

As to `Cc1cc(OCC(C)C)ccc1/C(O)=C1/C(=O)C(=O)N(Cc2cccnc2)C1c1ccncc1` (configuration not stated), the AC50 was 22.4 µM [rising, partial curve, poor fit].

As for `CCOc1ccc(-c2nnc3sc(COc4ccccc4)nn23)cc1`, the AC50 was 0.0631 µM [falling, full curve, poor fit].

As for `Cc1cc(C)c(NC(=O)NC(=O)c2ccc(F)cc2)c(C)n1`, the AC50 is 0.0501 µM [falling, full curve, poor fit].

In the case of `COCCN1C(=O)C(=O)/C(=C(/O)c2ccc(S(=O)(=O)N3CCOCC3)cc2)C1c1ccc(C(C)C)cc1` (configuration not stated), the AC50 was 31.6 µM [rising, single point].

For `CCOC(=O)CC(=O)CSc1ncnc2c1oc1ccccc12`, the AC50 is 10 µM [rising, partial curve].

`NC(=O)CSc1ncnc2c1oc1ccccc12`: the AC50 is 15.8 µM [rising, single point].

For `CC(=O)N(CCC(Cc1ccccc1)c1ccc2c(c1)OCO2)Cc1ccccc1F` (configuration not stated), the AC50 was 1 µM [rising, full curve, poor fit].

Turning to `C=CCn1c(SCCC#N)nnc1-c1ccncc1`, the AC50 was 25.1 µM [falling, single point].

On to `CCOC(=O)C1=C(C)OC(N)=C(C#N)C1c1cc2cc(C)ccc2nc1N1CCCCC1` (configuration not stated), for which the AC50 was 35.5 µM [rising, single point].

In the case of `Brc1ccc([C@H]2CN3CCSC3=N2)cc1`, the AC50 is 0.501 µM [rising, full curve, poor fit].

Take `O=C(/C=C/c1ccccc1)NC(=S)NNC(=O)Cc1cccs1`: the AC50 was 3.98 µM [falling, single point].

`NC(=O)c1c(NC(=O)C2CCCO2)sc2c1CCC2` (configuration not stated): the AC50 is 1.26 µM [falling, partial curve, poor fit].

In the case of `CCC(C(=O)NCCN1CCN(C)CC1)n1c(C)c2cnn(-c3ccccc3)c(=O)c2c1C` (configuration not stated), the AC50 is 20 µM [falling, single point].

Turning to `COC(=O)c1sccc1NC(=S)N1CCCC(C)C1` (configuration not stated), the AC50 was 0.126 µM [falling, full curve, poor fit].

Turning to `Cc1ccc(-n2c(Cc3cccn3C)nnc2SCC(=O)Nc2cc(C)on2)cc1`, the AC50 was 0.0794 µM [falling, full curve, poor fit].

Take `COc1cccc(/C=N/NC(=O)c2c(-c3ccccc3)noc2C)c1O`: the AC50 was 5.01 µM [falling, single point].

`O=C(/C=C/c1ccco1)NC(=S)Nc1cc(-c2nc3ccccc3s2)ccc1Cl`: the AC50 is 35.5 µM [rising, single point].

As to `C=CCOc1ccccc1CNCc1cccnc1`, the AC50 is 0.02 µM [falling, full curve, poor fit].

In the case of `O=C1CNC(=O)N1Cc1ccc(Br)cc1`, the concentration at half-maximal activity (AC50) is 5.01 µM [rising, single point].

Regarding `Cc1ccc2cc(C#N)c(SCC(=O)NCC3CCCO3)nc2c1` (configuration not stated), the AC50 was 31.6 µM [rising, single point].

Regarding `Cc1cccc(OCC(=O)N2CCN(C(=O)CCC3CCCC3)CC2)c1`, the AC50 is 1.58 µM [rising, partial curve, poor fit].

With `COCCNC(=O)c1c(N)sc2c1CCCC2`, the AC50 was 5.01 µM [falling, single point].

Take `CCCCNS(=O)(=O)c1ccc(OC)cc1`: the concentration at half-maximal activity (AC50) is 1.58 µM [falling, full curve].

Turning to `Cn1c(SCC(=O)NCCc2ccccc2)nnc1-c1ccncc1`, the AC50 was 5.01 µM [rising, single point].

With `CCCCS(=O)(=O)/C=C/[C@H]1[C@H](S(=O)(=O)CCCC)[C@H]2C=C[C@@H]1C2`, the AC50 was 0.0316 µM [falling, single point].

Turning to `C/C(=N\NC(=O)C1CC1c1ccccc1)c1ccc(C)s1` (configuration not stated), the AC50 is 0.251 µM [falling, full curve].

For orientation: AC50 means the concentration at which the activity in the assay is half-maximal.
